Some of these results come from one statement about several compounds together.
Experiment: Pharmacokinetic and tissue distribution study via intravenous and oral administration in male C57BL/6 mice
Assay type: in vivo
Conditions: comparing with reference 1 and reference 2
Method: Male C57BL/6 mice with a weight range of 20-25 g (Hua Fu Kang, China) were used. Animals were fasted overnight and free access to food 4 hours after dosing.
Test compound (correction factor: 1.00) was dissolved in a 20% hydroxypropyl-β-cyclodextrin (HP-β-CD) at a final concentration of 1 mg/ml for the intravenous (IV) formulation and at final concentrations of 0.5 mg/ml for the oral (PO) formulation. The intravenous formulation was dosed at 2 ml/kg to obtain a dose of 2 mg/kg. The oral formulations were dosed at 10 ml/kg to obtain final doses of 5 mg/kg.
Blood samples were taken at 7 and 20 min, 1, 2, 4, 8 and 24 h after intravenous dose administration. Blood and liver samples were taken at 30 min, 1, 2, 4, 8, 12 and 24 h after oral dose administration.
Approximately 0.020 mL blood will be collected into BD blood collection tubes containing K3-EDTA at each time point. Samples were placed immediately on melting ice and plasma was obtained following centrifugation at 4° C. for 5 minutes at approximately 4000×g. Plasma samples were adjusted to pH 3-4 by phosphoric acid and stored at −75±15° C. prior to analysis. The whole process was completed within 1 hour. […]
Plasma and liver samples were analyzed using LC-MS/MS methods. The lower limit of quantification (LLOQ) for plasma was 1.0 ng/ml and for liver was 2.5 ng/g. […]

| Structure (SMILES) | dose-normalized AUC in plasma, higher than references |
| --- | --- |
| CCOC(=O)C1=C(CN2CCN3C(=S)N(CC(C)(C)C(=O)O)CC3C2)NC(c2nccs2)=N[C@H]1c1cccc(F)c1C (single isomer, unassigned) [Compound 1A] | over 3 folds |
| CCOC(=O)C1=C(CN2CCN3C(=S)N(CC(C)(C)C(=O)O)CC3C2)NC(c2nccs2)=NC1c1cccc(F)c1Cl (single isomer, unassigned) [Compound 3B, 3-(7-((6-(2-chloro-3-fluorophenyl)-5-(ethoxycarbonyl)-2-(thiazol-2-yl)-3,6-dihydropyrimidin-4-yl)methyl)-3-thioxohexahydroimidazo[1,5-a]pyrazin-2(3H)-yl)-2,2-dimethylpropanoic acid] | over 3 folds |

Reference: US20230165865A1, “HETEROARYLDIHYDROPYRIMIDINE DERIVATIVES AND METHODS OF TREATING HEPATITIS B INFECTIONS” (Janssen Pharmaceutica NV, priority 2018, published 2023)
